{"source": "PubChem BioAssay AID504444", "about": "(National Center for Advancing Translational Sciences (NCATS), 2011)", "note": "The campaign covered roughly 360,000 compounds. About 7,500 (2.1%) were called active. Inconclusive means that the source gave no clear call. Such entries were picked first, then a sample of the others. Calls follow the shape of the dose curve; as a rule, active = well fitted inhibition curve with a large enough effect; inconclusive = small, poorly fitted or top-dose-only effect, or effect the other way; inactive = flat fitted curve, though single readings scatter. Potencies beside an inconclusive call are fits to weak or partial responses and may not hold up. Potency is read from the fitted curve at half-maximal effect."}
{"test": "Nrf2 qHTS screen for inhibitors; also: nearly all actives have a fitted effect of over 60% in size", "conditions": "A549 ARE-Fluc reporter, luciferase luminescence, 18-24 h; series mostly up to 46 µM", "summary_of_the_method": "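In this cell-based qHTS, ARE-driven firefly luciferase in A549 cells reports Nrf2 activity; the luminescent signal after BugLite lysis is the measured value, with a prior CellTiter-Fluor read for cell health.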"}
{"smiles": "COC(=O)c1ccc(S(=O)(=O)NCCSc2nnc3c4ccccc4n(C)c3n2)cc1", "Potency": "inconclusive: 14.6 µM [falling, partial curve, poor fit]"}
{"smiles": "Cn1c(CC(=O)Nc2ccccc2)nnc1SCC(=O)Nc1ccc(N2CCOCC2)cc1", "Potency": "inconclusive: 29.1 µM [activator, single point]"}
{"smiles": "CCN(c1ccc(C)cc1C)S(=O)(=O)c1nnc(NC(=O)c2ccc(F)cc2)s1", "Potency": "inactive"}
{"smiles": "CC(=O)N1c2ccc(S(=O)(=O)N3CCCC3C(=O)NCc3ccccc3Cl)cc2CC1C", "note": "(centres undefined)", "Potency": "inconclusive: 9.2 µM [falling, partial curve, poor fit]"}
{"smiles": "CCOc1ccc(S(=O)(=O)NCc2ccc(F)cc2)c2cccnc12", "Potency": "inactive"}
{"smiles": "COc1ccccc1CNS(=O)(=O)c1cc2c3c(c1)C(C)C(=O)N3CCC2", "note": "(centres undefined)", "Potency": "inconclusive: 8.2 µM [falling, partial curve]"}
{"smiles": "Cc1cc2nc(C)n(CCCNC(=O)Nc3ccccc3)c2cc1C", "Potency": "inconclusive: 23.1 µM [falling, partial curve]"}
{"smiles": "CC1CCCCN1C(=O)c1cc(-c2ccc3c(c2)OCO3)on1", "note": "(centres undefined)", "Potency": "inconclusive: 1.64 µM [activator, full curve]"}
{"smiles": "CC(C)CCOCC(=O)Nc1cccc(C(=O)O)c1", "Potency": "inconclusive: 16.4 µM [activator, single point]"}
{"smiles": "Cc1nn(-c2cc(N3CCCCC3)ccc2[N+](=O)[O-])c(=O)c2ccccc12", "Potency": "inconclusive: 32.6 µM [falling, single point]"}
{"smiles": "CC(=O)Nc1cccc(NC(=S)Nc2cccc3ccccc23)c1", "Potency": "inconclusive: 10.3 µM [activator, partial curve]"}
{"smiles": "COCCNC(=O)COc1ccc(Oc2ccccc2)cc1", "Potency": "inactive"}
{"smiles": "C=CCON/C(CCC)=C1\\C(=O)C(C(=O)OC)C(C)(C)CC1=NC", "note": "(centres undefined)", "Potency": "inconclusive: 6.51 µM [activator, partial curve, poor fit]"}
{"smiles": "Cc1ccc(CCNS(=O)(=O)c2cc3c(cc2C)NC(=O)CO3)cc1", "Potency": "inconclusive: 18.4 µM [falling, partial curve, poor fit]"}
{"smiles": "COc1ccc(N(C(=O)CNC(=O)c2ccco2)C(C(=O)NC2CCCCC2)c2ccncc2)cc1", "note": "(centres undefined)", "Potency": "inconclusive: 1.84 µM [falling, partial curve, poor fit]"}
{"smiles": "Cc1cc(=O)oc2cc(OCC(=O)OCC(=O)N3CCC(C)CC3)ccc12", "Potency": "inactive"}
{"smiles": "COc1ccc(CN2CCN(C(=O)CC(C)C)CC2)cc1Br", "Potency": "inconclusive: 2.31 µM [falling, partial curve]"}
{"smiles": "CC1CCC(C(C)C)C(OC(=O)COC(=O)c2ccc(=O)[nH]c2)C1", "note": "(centres undefined)", "Potency": "inconclusive: 25.9 µM [falling, single point]"}
{"smiles": "COc1ccc(OC)c(NC(=O)C2CCCN2C(=O)C2CCC(C)CC2)c1", "note": "(centres undefined)", "Potency": "inconclusive: 32.6 µM [falling, single point]"}
{"smiles": "CC1CN(CCCCOc2cccc(Oc3ccccc3)c2)CC(C)O1", "note": "(centres undefined)", "Potency": "inactive"}
{"smiles": "Cc1ccc2nc(NC(=O)CSc3nnc(C)c(=O)n3N)sc2c1", "Potency": "inconclusive: 5.17 µM [activator, full curve, poor fit]"}
{"smiles": "COC(=O)c1ccc(NC(=O)CNC(=O)C2CCCCC2)cc1", "Potency": "inconclusive: 0.103 µM [activator, full curve, poor fit]"}
{"smiles": "COc1cc(NC(=O)CSc2ccc(-c3sc(C)nc3C)nn2)cc(OC)c1", "Potency": "inconclusive: 29.1 µM [falling, single point]"}
{"smiles": "Cc1ccc(-c2n[nH]c(=O)c3ccccc23)c(C)c1", "Potency": "inconclusive: 23.1 µM [falling, single point]"}
{"smiles": "O=C(CSc1cc(Cl)ccc1Cl)NC1CCCC1", "Potency": "inconclusive: 29.1 µM [activator, partial curve, poor fit]"}
{"smiles": "CCOC(=O)/C(C#N)=C/N=c1ccc(C)cn1C", "Potency": "inconclusive: 9.2 µM [activator, partial curve]"}
{"smiles": "C/C(=N\\NC(=O)c1cccc(N/N=C(\\C)c2ccccc2)c1)c1ccccc1", "Potency": "inactive"}
{"smiles": "CCCOc1ccc(C(=O)Nc2cccc(NC(=O)c3ccc(Cl)cc3Cl)c2)cc1", "Potency": "inactive"}
{"smiles": "COc1ccc(C(=O)N/N=C/c2c[nH]c3ccccc23)cc1", "Potency": "inconclusive: 8.2 µM [activator, partial curve]"}
{"smiles": "CCCN(CCC)C(=O)CSc1nc2ccccc2c(=O)n1C1CCCC1", "Potency": "inconclusive: 20.6 µM [falling, single point]"}
{"smiles": "Cc1cccc(CSc2nc3c(c(=O)n2C)SCC3)c1", "Potency": "inconclusive: 20.6 µM [falling, single point]"}
{"smiles": "CCCCc1nc2sc3c(c2c(=O)[nH]1)CCC3", "Potency": "inconclusive: 11.6 µM [falling, single point]"}
{"smiles": "CC(NC(=O)c1ccco1)c1nc(-c2ccccc2Cl)no1", "note": "(centres undefined)", "Potency": "inconclusive: 2.31 µM [activator, single point]"}
{"smiles": "Cc1cc(C)c2cc(CN(CCCN(C)C)C(=S)NCc3ccccc3)c(=O)[nH]c2c1", "Potency": "inactive"}
{"smiles": "CCOCCCN(C)C1CCN(C(=O)c2oc3ccccc3c2NC(=O)c2ccc(F)cc2)CC1", "Potency": "inconclusive: 1.84 µM [falling, partial curve, poor fit]"}
{"smiles": "CCOC(=O)/C=C(\\C)N1N=C(c2ccccc2)CC1c1ccccc1", "note": "(centres undefined)", "Potency": "inconclusive: 20.6 µM [activator, single point]"}
{"smiles": "CCn1c(C)nc2cc(C(=O)NNC(=S)Nc3ccc(Cl)cc3)ccc21", "Potency": "inconclusive: 13 µM [falling, partial curve, poor fit]"}
{"smiles": "O=[N+]([O-])c1ccc(S(=O)(=O)NCCCc2ccccc2)cc1", "Potency": "inconclusive: 32.6 µM [falling, single point]"}
{"smiles": "COC(=O)C1=CN(Cc2ccccc2)C=C(C(=O)OC)C1c1cc(F)ccc1F", "Potency": "inconclusive: 18.4 µM [falling, partial curve]"}
{"smiles": "C=CCC(Nc1ccccc1)C12C=CC(O1)C(C(=O)OC)=C2C(=O)OC", "note": "(centres undefined)", "Potency": "inconclusive: 25.9 µM [falling, partial curve]"}
{"smiles": "O=C(NCc1ccccc1)N1CCN(c2ccc(Cl)c(Cl)c2)CC1", "Potency": "inconclusive: 20.6 µM [falling, partial curve, poor fit]"}
{"smiles": "CCOc1ccc(S(=O)(=O)NCCC(=O)NCCOc2ccccc2)cc1", "Potency": "inconclusive: 29.1 µM [falling, partial curve, poor fit]"}
{"smiles": "COc1ccc(NC(=O)CC(=O)Nc2ccc(OC)cc2OC)c(OC)c1", "Potency": "inconclusive: 0.0046 µM [falling, full curve, poor fit]"}
{"smiles": "Cc1ccc(C(C(=O)NC2CCCC2)N(Cc2ccc(F)cc2)C(=O)c2snc(C(N)=O)c2N)o1", "note": "(centres undefined)", "Potency": "inconclusive: 29.1 µM [activator, partial curve, poor fit]"}
{"smiles": "COc1cc(-c2ccc3ncnc(NCC4CCCO4)c3c2)cc(OC)c1OC", "note": "(centres undefined)", "Potency": "inconclusive: 2.06 µM [falling, full curve, poor fit]"}
{"smiles": "O=C(Cn1cnc([N+](=O)[O-])c1)Nc1cc(Oc2ccc(Cl)cc2Cl)cc([N+](=O)[O-])c1", "Potency": "inconclusive: 29.1 µM [falling, single point]"}
{"smiles": "COc1ccc(C2/C=C\\CN(CC3CC3)C(Cc3ccccc3)C(=O)N2Cc2ccc(F)cc2)cc1", "note": "(centres undefined)", "Potency": "inconclusive: 29.1 µM [falling, single point]"}
{"smiles": "Cc1cc(C)cc(NC(=O)[C@H](Cc2c[nH]c3ccccc23)NC(=O)[C@@H]2Cc3ccccc3CN2)c1", "Potency": "inactive"}
{"smiles": "Cc1cccc(NC(=O)CN2CCN(C(=O)CN3C(=O)NC4(CCCCC4C)C3=O)CC2)c1C", "note": "(centres undefined)", "Potency": "inconclusive: 20.6 µM [falling, partial curve, poor fit]"}
{"smiles": "O=C1Nc2ccc(Br)cc2/C1=C/C(=O)c1ccc2c(c1)OCO2", "Potency": "inactive"}
{"smiles": "Brc1ccc(-c2nc(-c3ccncc3)no2)cc1", "Potency": "inconclusive: 3.26 µM [activator, partial curve, poor fit]"}
{"smiles": "CCN1c2ccccc2-c2nc(SCC(=O)Nc3cc(C)c(Cl)cc3OC)ncc2S1(=O)=O", "Potency": "inactive"}
{"smiles": "CCOC(=O)c1ccc(N/C=C/C(=O)c2ccco2)cc1", "Potency": "inconclusive: 1.64 µM [activator, full curve]"}
{"smiles": "CCNC(=O)CC1SC(=Nc2ccc(Cl)cc2)N(CC)C1=O", "note": "(centres undefined)", "Potency": "inactive"}
{"smiles": "COc1ccc(CCNC(=O)c2c3c(nc4ccccc24)C(=O)N(C2CCCCC2)C3)cc1OC", "Potency": "inconclusive: 18.4 µM [falling, single point]"}
{"smiles": "CC(C)CN1C(=O)/C(=C/c2ccco2)NC1=S", "Potency": "inactive"}
{"smiles": "Cc1ccc(S(=O)(=O)N(C)CC(=O)Nc2cc(C)ccn2)cc1", "Potency": "inconclusive: 29.1 µM [activator, single point]"}
{"smiles": "Cc1cc(NC(=O)CN(C)S(=O)(=O)c2ccc(-c3ccc(=O)[nH]n3)s2)ccc1Br", "Potency": "inconclusive: 10.3 µM [falling, partial curve, poor fit]"}
{"smiles": "Cc1ccc(S(=O)(=O)c2c(C)nn(C(C)(C)C)c2OC(=O)c2ccc(Br)o2)cc1", "Potency": "inconclusive: 25.9 µM [falling, single point]"}
{"smiles": "O=Cc1ccc(B(O)O)cc1", "Potency": "inconclusive: 25.9 µM [activator, partial curve]"}
{"smiles": "CC(C)C(=O)N1CCN(c2ccc([N+](=O)[O-])c(NC(C)c3ccccc3)c2)CC1", "note": "(centres undefined)", "Potency": "inconclusive: 29.1 µM [falling, single point]"}
{"smiles": "COc1ccc(CCNC(=O)c2ccn[nH]2)cc1OC", "Potency": "inconclusive: 0.103 µM [activator, full curve, poor fit]"}
{"smiles": "Cc1cc(C(=O)COC(=O)c2n[nH]c(=O)c3ccccc23)c(C)n1C", "Potency": "inconclusive: 16.4 µM [falling, partial curve, poor fit]"}
{"smiles": "N/C(=N\\OC(=O)c1cc(Cl)ccc1Cl)c1ccccn1", "Potency": "inconclusive: 1.84 µM [activator, full curve]"}
